Publication PMC11193767
Results are given in words; binding and its absence hold for the method and conditions named. Binding seen in cells or lysates may run through a third protein. A yes stands for co-enrichment or nearness to the bait. Other partners may have been found.

By UniProt entry, the sequences of proteins in these tests, tags left out.
UniProt Q8IWT6: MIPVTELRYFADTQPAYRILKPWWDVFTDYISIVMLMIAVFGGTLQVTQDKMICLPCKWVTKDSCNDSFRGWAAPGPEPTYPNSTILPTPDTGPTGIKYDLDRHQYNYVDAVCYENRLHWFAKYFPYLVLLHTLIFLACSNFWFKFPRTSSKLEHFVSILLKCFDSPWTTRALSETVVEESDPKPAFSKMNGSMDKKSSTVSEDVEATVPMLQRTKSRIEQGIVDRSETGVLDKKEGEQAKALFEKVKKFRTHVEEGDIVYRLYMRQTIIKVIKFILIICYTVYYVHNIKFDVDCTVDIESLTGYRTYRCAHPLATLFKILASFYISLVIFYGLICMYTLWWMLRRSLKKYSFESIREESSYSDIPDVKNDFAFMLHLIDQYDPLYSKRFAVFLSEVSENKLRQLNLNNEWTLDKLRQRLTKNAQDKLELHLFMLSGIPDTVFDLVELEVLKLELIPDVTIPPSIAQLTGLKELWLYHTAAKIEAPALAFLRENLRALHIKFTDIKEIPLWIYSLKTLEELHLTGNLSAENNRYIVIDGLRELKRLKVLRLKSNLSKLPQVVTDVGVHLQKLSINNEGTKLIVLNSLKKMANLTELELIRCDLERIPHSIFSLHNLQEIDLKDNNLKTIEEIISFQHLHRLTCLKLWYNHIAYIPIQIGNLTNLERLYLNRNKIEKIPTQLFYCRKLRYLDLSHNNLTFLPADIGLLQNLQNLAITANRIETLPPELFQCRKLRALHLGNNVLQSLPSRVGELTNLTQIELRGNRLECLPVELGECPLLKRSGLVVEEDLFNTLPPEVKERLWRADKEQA

B1: Rho GTPase activating protein 39 (protein, UniProt Q9C0H5-2 1-1114)
chain: MSQTQDYECRSHNVDLPESRIPGSNTRLEWVEIIEPRTRERMYANLVTGECVWDPPAGVRIKRTSENQWWELFDPNTSRFYYYNASTQRTVWHRPQGCDIIPLAKLQTLKQNTESPRASAESSPGRGSSVSREGSTSSSLEPEPDTEKAQELPARAGRPAAFGTVKEDSGSSSPPGVFLEKDYEIYRDYSADGQLLHYRTSSLRWNSGAKERMLIKVADREPSFLAAQGNGYAPDGPPGVRSRRPSGSQHSPSLQTFAPEADGTIFFPERRPSPFLKRAELPGSSSPLLAQPRKPSGDSQPSSPRYGYEPPLYEEPPVEYQAPIYDEPPMDVQFEAGGGYQAGSPQRSPGRKPRPFLQPNKQGPPSPCQQLVLTKQKCPERFLSLEYSPAGKEYVRQLVYVEQAGSSPKLRAGPRHKYAPNPGGGSYSLQPSPCLLRDQRLGVKSGDYSTMEGPELRHSQPPTPLPQAQEDAMSWSSQQDTLSSTGYSPGTRKRKSRKPSLCQATSATPTEGPGDLLVEQPLAEEQPPCGTSLAPVKRAEGEAEGARGAAEPFLAQARLAWEAQQAHFHMKQRSSWDSQQDGSGYESDGALPLPMPGPVVRAFSEDEALAQQENRHWRRGTFEKLGFPQILLEKSVSVQTNLASPEPYLHPSQSEDLAACAQFESSRQSRSGVPSSSCVFPTFTLRKPSSETDIENWASKHFNKHTQGLFRRKVSIANMLAWSSESIKKPMIVTSDRHVKKEACELFKLIQMYMGDRRAKADPLHVALEVATKGWSVQGLRDELYIQLCRQTTENFRLESLARGWELMAICLAFFPPTPKFHSYLEGYIYRHMDPVNDTKVTQHIKELLERNTKKKSKLRKKPKPYVEEPDGVAISTYAKYCYHKLQKAALTGAKKGLKKPNVEEIRHAKNAVFSPSMFGSALQEVMGMQRERYPERQLPWVQTRLSEEVLALNGDQTEGIFRVPGDIDEVNALKLQVDQWKVPTGLEDPHVPASLLKLWYRELEEPLIPHEFYEQCIAHYDSPEAAVAVVHALPRINRMVLCYLIRFLQVFVQPANVAVTKMDVSNLAMVMAPNCLRCQSDDPRVIFENTRKEMSFLRVLIQHLDTSFMEGVL
B2: WD repeat domain phosphoinositide-interacting protein 2 (protein, UniProt Q9Y4P8-1 1-454)
chain: MNLASQSGEAGAGQLLFANFNQDNTEVKGASRAAGLGRRAVVWSLAVGSKSGYKFFSLSSVDKLEQIYECTDTEDVCIVERLFSSSLVAIVSLKAPRKLKVCHFKKGTEICNYSYSNTILAVKLNRQRLIVCLEESLYIHNIRDMKVLHTIRETPPNPAGLCALSINNDNCYLAYPGSATIGEVQVFDTINLRAANMIPAHDSPLAALAFDASGTKLATASEKGTVIRVFSIPEGQKLFEFRRGVKRCVSICSLAFSMDGMFLSASSNTETVHIFKLETVKEKPPEEPTTWTGYFGKVLMASTSYLPSQVTEMFNQGRAFATVRLPFCGHKNICSLATIQKIPRLLVGAADGYLYMYNLDPQEGGECALMKQHRLDGSLETTNEILDSASHDCPLVTQTYGAAAGKGTYVPSSPTRLAYTDDLGAVGGACLEDEASALRLDEDSEHPPMILRTD
B3: WW domain-containing oxidoreductase (protein, UniProt Q9NZC7-1 1-414)
chain: MAALRYAGLDDTDSEDELPPGWEERTTKDGWVYYANHTEEKTQWEHPKTGKRKRVAGDLPYGWEQETDENGQVFFVDHINKRTTYLDPRLAFTVDDNPTKPTTRQRYDGSTTAMEILQGRDFTGKVVVVTGANSGIGFETAKSFALHGAHVILACRNMARASEAVSRILEEWHKAKVEAMTLDLALLRSVQHFAEAFKAKNVPLHVLVCNAATFALPWSLTKDGLETTFQVNHLGHFYLVQLLQDVLCRSAPARVIVVSSESHRFTDINDSLGKLDFSRLSPTKNDYWAMLAYNRSKLCNILFSNELHRRLSPRGVTSNAVHPGNMMYSNIHRSWWVYTLLFTLARPFTKSMQQGAATTVYCAAVPELEGLGGMYFNNCCRCMPSPEAQSEETARTLWALSERLIQERLGSQSG
B4: Synaptobrevin homolog YKT6 (protein, UniProt O15498-1 1-198)
chain: MKLYSLSVLYKGEAKVVLLKAAYDVSSFSFFQRSSVQEFMTFTSQLIVERSSKGTRASVKEQDYLCHVYVRNDSLAGVVIADNEYPSRVAFTLLEKVLDEFSKQVDRIDWPVGSPATIHYPALDGHLSRYQNPREADPMTKVQAELDETKIILHNTMESLLERGEKLDDLVSKSEVLGTQSKAFYKTARKQNSCCAIM
B5: Zinc finger FYVE domain-containing protein 9 (protein, UniProt O95405-1 1-1425)
chain: MENYFQAEAYNLDKVLDEFEQNEDETVSSTLLDTKWNKILDPPSHRLSFNPTLASVNESAVSNESQPQLKVFSLAHSAPLTTEEEDHCANGQDCNLNPEIATMWIDENAVAEDQLIKRNYSWDDQCSAVEVGEKKCGNLACLPDEKNVLVVAVMHNCDKRTLQNDLQDCNNYNSQSLMDAFSCSLDNENRQTDQFSFSINESTEKDMNSEKQMDPLNRPKTEGRSVNHLCPTSSDSLASVCSPSQLKDDGSIGRDPSMSAITSLTVDSVISSQGTDGCPAVKKQENYIPDEDLTGKISSPRTDLGSPNSFSHMSEGILMKKEPAEESTTEESLRSGLPLLLKPDMPNGSGRNNDCERCSDCLVPNEVRADENEGYEHEETLGTTEFLNMTEHFSESQDMTNWKLTKLNEMNDSQVNEEKEKFLQISQPEDTNGDSGGQCVGLADAGLDLKGTCISESEECDFSTVIDTPAANYLSNGCDSYGMQDPGVSFVPKTLPSKEDSVTEEKEIEESKSECYSNIYEQRGNEATEGSGLLLNSTGDLMKKNYLHNFCSQVPSVLGQSSPKVVASLPSISVPFGGARPKQPSNLKLQIPKPLSDHLQNDFPANSGNNTKNKNDILGKAKLGENSATNVCSPSLGNISNVDTNGEHLESYEAEISTRPCLALAPDSPDNDLRAGQFGISARKPFTTLGEVAPVWVPDSQAPNCMKCEARFTFTKRRHHCRACGKVFCASCCSLKCKLLYMDRKEARVCVICHSVLMNAQAWENMMSASSQSPNPNNPAEYCSTIPPLQQAQASGALSSPPPTVMVPVGVLKHPGAEVAQPREQRRVWFADGILPNGEVADAAKLTMNGTSSAGTLAVSHDPVKPVTTSPLPAETDICLFSGSITQVGSPVGSAMNLIPEDGLPPILISTGVKGDYAVEEKPSQISVMQQLEDGGPDPLVFVLNANLLSMVKIVNYVNRKCWCFTTKGMHAVGQSEIVILLQCLPDEKCLPKDIFNHFVQLYRDALAGNVVSNLGHSFFSQSFLGSKEHGGFLYVTSTYQSLQDLVLPTPPYLFGILIQKWETPWAKVFPIRLMLRLGAEYRLYPCPLFSVRFRKPLFGETGHTIMNLLADFRNYQYTLPVVQGLVVDMEVRKTSIKIPSNRYNEMMKAMNKSNEHVLAGGACFNEKADSHLVCVQNDDGNYQTQAISIHNQPRKVTGASFFVFSGALKSSSGYLAKSSIVEDGVMVQITAENMDSLRQALREMKDFTITCGKADAEEPQEHIHIQWVDDDKNVSKGVVSPIDGKSMETITNVKIFHGSEYKANGKVIRWTEVFFLENDDQHNCLSDPADHSRLTEHVAKAFCLALCPHLKLLKEDGMTKLGLRVTLDSDQVGYQAGSNGQPLPSQYMNDLDSALVPVIHGGACQLSEGPVVMELIFYILENIV
B6: Threonylcarbamoyladenosine tRNA methylthiotransferase (protein, UniProt Q5VV42-1 1-579)
chain: MPSASCDTLLDDIEDIVSQEDSKPQDRHFVRKDVVPKVRRRNTQKYLQEEENSPPSDSTIPGIQKIWIRTWGCSHNNSDGEYMAGQLAAYGYKITENASDADLWLLNSCTVKNPAEDHFRNSIKKAQEENKKIVLAGCVPQAQPRQDYLKGLSIIGVQQIDRVVEVVEETIKGHSVRLLGQKKDNGRRLGGARLDLPKIRKNPLIEIISINTGCLNACTYCKTKHARGNLASYPIDELVDRAKQSFQEGVCEIWLTSEDTGAYGRDIGTNLPTLLWKLVEVIPEGAMLRLGMTNPPYILEHLEEMAKILNHPRVYAFLHIPVQSASDSVLMEMKREYCVADFKRVVDFLKEKVPGITIATDIICGFPGETDQDFQETVKLVEEYKFPSLFINQFYPRPGTPAAKMEQVPAQVKKQRTKDLSRVFHSYSPYDHKIGERQQVLVTEESFDSKFYVAHNQFYEQVLVPKNPAFMGKMVEVDIYESGKHFMKGQPVSDAKVYTPSISKPLAKGEVSGLTKDFRNGLGNQLSSGSHTSAASQCDSASSRMVLPMPRLHQDCALRMSVGLALLGLLFAFFVKVYN
B7: Chloride channel CLIC-like protein 1 (protein, UniProt Q96S66-1 19-551)
chain: HDDDWIDPTDMLNYDAASGTMRKSQAKYGISGEKDVSPDLSCADEISECYHKLDSLTYKIDECEKKKREDYESQSNPVFRRYLNKILIEAGKLGLPDENKGDMHYDAEIILKRETLLEIQKFLNGEDWKPGALDDALSDILINFKFHDFETWKWRFEDSFGVDPYNVLMVLLCLLCIVVLVATELWTYVRWYTQLRRVLIISFLFSLGWNWMYLYKLAFAQHQAEVAKMEPLNNVCAKKMDWTGSIWEWFRSSWTYKDDPCQKYYELLLVNPIWLVPPTKALAVTFTTFVTEPLKHIGKGTGEFIKALMKEIPALLHLPVLIIMALAILSFCYGAGKSVHVLRHIGGPESEPPQALRPRDRRRQEEIDYRPDGGAGDADFHYRGQMGPTEQGPYAKTYEGRREILRERDVDLRFQTGNKSPEVLRAFDVPDAEAREHPTVVPSHKSPVLDTKPKETGGILGEGTPKESSTESSQSAKPVSGQDTSGNTEGSPAAEKAQLKSEAAGSPDQGSTYSPARGVAGPRGQDPVSSPCG
B8: Clathrin interactor 1 (protein, UniProt Q14677-3 1-643)
chain: MLNMWKVRELVDKATNVVMNYSEIESKVREATNDDPWGPSGQLMGEIAKATFMYEQFPELMNMLWSRMLKDNKKNWRRVYKSLLLLAYLIRNGSERVVTSAREHIYDLRSLENYHFVDEHGKDQGINIRQKVKELVEFAQDDDRLREERKKAKKNKDKYVGVSSDSVGGFRYSERYDPEPKSKWDEEWDKNKSAFPFSDKLGELSDKIGSTIDDTISKFRRKDREDSPERCSDSDEEKKARRGRSPKGEFKDEEETVTTKHIHITQATETTTTRHKRTANPSKTIDLGAAAHYTGDKASPDQNASTHTPQSSVKTSVPSSKSSGDLVDLFDGTSQSTGGSADLFGGFADFGSAAASGSFPSQVTATSGNGDFGDWSAFNQAPSGPVASSGEFFGSASQPAVELVSGSQSALGPPPAASNSSDLFDLMGSSQATMTSSQSMNFSMMSTNTVGLGLPMSRSQPLQNVSTVLQKPNPLYNQNTDMVQKSVSKTLPSTWSDPSVNISLDNLLPGMQPSKPQQPSLNTMIQQQNMQQPMNVMTQSFGAVNLSSPSNMLPVRPQTNALIGGPMPMSMPNVMTGTMGMAPLGNTPMMNQSMMGMNMNIGMSAAGMGLTGTMGMGMPNIAMTSGTVQPKQDAFANFANFSK

molecular target: LRRC8A-BirA*-HA fusion protein (human) (UniProt Q8IWT6); experiment: proximity labelling; BioID: HEK293 cells stably expressing LRRC8A-BirA*-HA (two clones), 50 uM biotin 24 h, RIPA lysis, streptavidin bead pull-down of biotinylated proteins, TMT labelling and LC-MS/MS; hits: FDR <= 0.05 and fold change >= 2 against the no-biotin control

| Binder | binding |
| --- | --- |
| B1 | binds |
| B2 | binds |
| B3 | binds |
| B4 | binds |
| B5 | binds |
| B6 | binds |
| B7 | binds |
| B8 | binds |
